Reference: PubChem BioAssay AID743454 (Peter MacCallum Cancer Centre, 2014)
Aim: 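Knock-downs lowering viability or raising caspase 3/7 activity in vorinostat-treated resistant cells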 (primary screen). Cells: human HCT116-VR colon cancer cells, selected for vorinostat resistance. Knock-down reagent: siRNA pool against human genes, 40 nM siRNA pool. Timing: vorinostat for 24 h, read-out about 72 h after transfection. Conditions: vorinostat at 2.5 µM final. Read-out: 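Cell viability by CellTiter-Fluor and caspase 3/7 activity by luminescence, each scaled to mock wells per plate, duplicates averaged, then robust z-scored over all plates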. Direction: viability robust z-score: higher = more viable cells than screen typical; caspase robust z-score: higher = more caspase 3/7 activity than screen typical. Active means: 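a knock-down is a hit when classed RV1 or RV2 for lowered viability, or CA1 or CA2 for caspase activation; those lethal without drug were dropped; hits were retested singly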.
This is one part, drawn at random, of about 18,000 reagents tested. 450 of all reagents (2.5%) count as active. 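Single biological run; no consistent viability z cut-off exists, so the class columns, not z-scores, define the calls.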 No sequences are given here.

After knock-down of ONECUT2 (one cut homeobox 2) the results were viability hit class no change; caspase hit class no change; viability robust z-score -0.83; caspase robust z-score -0.52; inactive.
Silencing of RHCE (Rh blood group CcEe antigens) gave: viability hit class no change; caspase hit class no change; viability robust z-score -0.39; caspase robust z-score 0.54; inactive.
For ALKBH1 (alkB homolog 1, histone H2A dioxygenase), the values are viability hit class no change; caspase hit class no change; viability robust z-score 0.05; caspase robust z-score -0.17; inactive.
Silencing of FAM204A (family with sequence similarity 204 member A) resulted in: viability hit class no change; caspase hit class no change; viability robust z-score -0.61; caspase robust z-score 0.28; inactive.
Silencing of SOST (sclerostin) resulted in: viability hit class no change; caspase hit class no change; viability robust z-score -0.24; caspase robust z-score 2.1; inactive.
With knock-down of IL18R1 (interleukin 18 receptor 1), the screen gave viability hit class no change; caspase hit class no change; viability robust z-score -0.46; caspase robust z-score -0.31; inactive.
For LINC00303 (long independently transcribed non-coding RNA 303) the deposit lists viability hit class no change; caspase hit class no change; viability robust z-score 0.04; caspase robust z-score -0.72; inactive.
Against SASH3 (SAM and SH3 domain containing 3), the entry reads viability hit class no change; caspase hit class no change; viability robust z-score -1.62; caspase robust z-score -0.15; inactive.
TRIM65 (tripartite motif containing 65) gave viability hit class no change; caspase hit class no change; viability robust z-score -0.15; caspase robust z-score -0.53; inactive.
ZNF667 (zinc finger protein 667) gave viability hit class no change; caspase hit class no change; viability robust z-score 0.6; caspase robust z-score -0.73; inactive.
After knock-down of EXOC3L2 (exocyst complex component 3 like 2), the screen gave viability hit class no change; caspase hit class no change; viability robust z-score -0.35; caspase robust z-score 1.9; inactive.
Knock-down of LASP1 (LIM and SH3 protein 1) gave: viability hit class no change; caspase hit class no change; viability robust z-score -0.9; caspase robust z-score -0.28; inactive.
After knock-down of CDK9 (cyclin dependent kinase 9), the record shows viability hit class no change; caspase hit class no change; viability robust z-score -0.01; caspase robust z-score -0.22; inactive.
Against KLK7 (kallikrein related peptidase 7), the values are viability hit class no change; caspase hit class no change; viability robust z-score -0.82; caspase robust z-score 2.3; inactive.
